The conditions of data set [1]: rat, in vivo.
The next data set in a line: in vivo. The settings on record: female, Sprague-Dawley, rat, im.

As to `NCCCC(O)(P(=O)(O)O)P(=O)(O)O` [Alendronate Calcium, alendronate calcium], in data set [1] (female, Sprague-Dawley), the “Net Bone Absorption Rate, %” value came out at 77%. Further, in data set [1] (im), the “Cmax (maximum daily urine excretion)” value was determined as 74 µg/day, the “Cmax for Released Drug (Daily Excretion)” value was found to be 74 and the “tmax (time when Cmax appears)” value is given as 1 days. Further, in the data set “in vivo”, the Tmax is 24 h.

One may read the Tmax as the time at which the peak concentration occurs.

(Values after US8974801B2, “Long term sustained release pharmaceutical composition containing aqueous suspension of bisphosphonate” (priority 2006, dated 2015).)
